This note sets out measurements from WO2001072771A2.

The chains behind the UniProt entries cited, without tags or fusion partners. Where a name states a change or a piece, a line headed by the entry shows the natural chain unless it says otherwise. Residues count along the entry.
UniProt P06213: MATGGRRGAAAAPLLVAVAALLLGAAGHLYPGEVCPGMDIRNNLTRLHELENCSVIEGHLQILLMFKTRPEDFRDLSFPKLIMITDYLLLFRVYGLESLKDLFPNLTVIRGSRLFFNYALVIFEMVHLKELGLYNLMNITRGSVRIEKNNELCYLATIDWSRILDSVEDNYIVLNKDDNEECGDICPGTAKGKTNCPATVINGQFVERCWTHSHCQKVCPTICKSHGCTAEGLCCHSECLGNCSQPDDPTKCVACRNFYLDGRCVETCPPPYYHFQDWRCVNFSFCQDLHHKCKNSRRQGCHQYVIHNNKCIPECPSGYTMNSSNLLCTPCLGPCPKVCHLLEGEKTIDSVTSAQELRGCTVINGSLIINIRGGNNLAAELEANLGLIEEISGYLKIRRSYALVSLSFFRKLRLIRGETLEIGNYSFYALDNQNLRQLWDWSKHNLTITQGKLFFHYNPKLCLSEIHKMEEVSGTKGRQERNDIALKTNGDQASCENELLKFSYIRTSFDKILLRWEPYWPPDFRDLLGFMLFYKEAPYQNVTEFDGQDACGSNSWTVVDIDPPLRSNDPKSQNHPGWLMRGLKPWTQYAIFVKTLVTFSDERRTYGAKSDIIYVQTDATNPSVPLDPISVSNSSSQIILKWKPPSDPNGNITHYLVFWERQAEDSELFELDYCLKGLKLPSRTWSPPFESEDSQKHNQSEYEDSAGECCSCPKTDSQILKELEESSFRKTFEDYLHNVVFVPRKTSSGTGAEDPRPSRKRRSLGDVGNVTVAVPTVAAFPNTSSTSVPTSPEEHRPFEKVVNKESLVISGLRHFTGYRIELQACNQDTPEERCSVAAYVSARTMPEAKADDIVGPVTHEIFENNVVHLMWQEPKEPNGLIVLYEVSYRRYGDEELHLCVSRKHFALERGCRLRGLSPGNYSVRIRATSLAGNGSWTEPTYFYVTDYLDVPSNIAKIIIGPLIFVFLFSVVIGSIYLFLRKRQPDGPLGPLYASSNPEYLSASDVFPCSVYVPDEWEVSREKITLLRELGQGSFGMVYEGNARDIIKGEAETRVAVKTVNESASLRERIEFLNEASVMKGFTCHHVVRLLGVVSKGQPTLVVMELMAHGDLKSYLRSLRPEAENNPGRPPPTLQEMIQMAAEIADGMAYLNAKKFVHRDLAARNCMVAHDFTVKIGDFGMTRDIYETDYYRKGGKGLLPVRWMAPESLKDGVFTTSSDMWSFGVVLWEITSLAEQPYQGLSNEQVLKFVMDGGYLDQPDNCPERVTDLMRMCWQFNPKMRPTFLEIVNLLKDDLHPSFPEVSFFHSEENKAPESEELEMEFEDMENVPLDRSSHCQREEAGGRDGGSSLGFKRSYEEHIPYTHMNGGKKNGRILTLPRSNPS
human insulin receptor (HIR): residues 28-1382 of P06213
soluble human insulin receptor (IR-Fc): residues 28-956 of P06213
UniProt P08069: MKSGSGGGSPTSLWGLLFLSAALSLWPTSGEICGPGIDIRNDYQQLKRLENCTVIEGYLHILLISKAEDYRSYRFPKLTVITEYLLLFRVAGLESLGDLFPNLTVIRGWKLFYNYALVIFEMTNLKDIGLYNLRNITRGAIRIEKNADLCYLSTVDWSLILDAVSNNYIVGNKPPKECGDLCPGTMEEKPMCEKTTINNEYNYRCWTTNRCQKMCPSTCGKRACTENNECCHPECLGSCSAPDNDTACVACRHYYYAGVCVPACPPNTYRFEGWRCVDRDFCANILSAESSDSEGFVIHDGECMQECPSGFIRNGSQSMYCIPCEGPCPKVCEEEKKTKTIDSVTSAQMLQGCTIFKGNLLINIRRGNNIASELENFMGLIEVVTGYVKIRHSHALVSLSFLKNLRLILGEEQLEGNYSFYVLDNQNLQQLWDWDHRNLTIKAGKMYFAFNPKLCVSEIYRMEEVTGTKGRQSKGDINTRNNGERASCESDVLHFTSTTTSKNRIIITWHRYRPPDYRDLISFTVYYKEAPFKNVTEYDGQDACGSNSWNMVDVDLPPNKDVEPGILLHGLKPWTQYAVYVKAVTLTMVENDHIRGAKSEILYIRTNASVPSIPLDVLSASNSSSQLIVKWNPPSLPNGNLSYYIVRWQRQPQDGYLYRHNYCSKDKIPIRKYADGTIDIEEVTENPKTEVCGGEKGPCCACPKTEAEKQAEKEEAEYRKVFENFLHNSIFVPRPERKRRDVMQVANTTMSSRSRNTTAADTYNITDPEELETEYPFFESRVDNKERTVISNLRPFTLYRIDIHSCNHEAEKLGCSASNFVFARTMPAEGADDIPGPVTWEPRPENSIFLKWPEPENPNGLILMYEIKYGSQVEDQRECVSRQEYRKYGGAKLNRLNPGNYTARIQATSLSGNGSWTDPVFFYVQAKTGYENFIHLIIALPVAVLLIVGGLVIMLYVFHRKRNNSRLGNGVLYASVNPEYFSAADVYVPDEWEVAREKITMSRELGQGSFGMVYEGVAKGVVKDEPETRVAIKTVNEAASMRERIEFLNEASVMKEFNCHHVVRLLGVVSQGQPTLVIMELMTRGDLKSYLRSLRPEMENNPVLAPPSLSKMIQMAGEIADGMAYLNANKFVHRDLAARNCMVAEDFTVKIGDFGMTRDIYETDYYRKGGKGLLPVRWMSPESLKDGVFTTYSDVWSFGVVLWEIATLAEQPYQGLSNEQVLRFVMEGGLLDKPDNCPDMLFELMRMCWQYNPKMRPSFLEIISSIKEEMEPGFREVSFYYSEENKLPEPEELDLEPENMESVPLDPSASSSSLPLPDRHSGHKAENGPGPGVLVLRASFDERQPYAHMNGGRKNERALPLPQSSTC
sIGF-1R-Fc: residues 31-935 of P08069
soluble IGF-1 receptor: residues 31-932 of P08069

These are yes or no findings as the source states them, for the method shown. Some binding calls cover weakened binding; strength is not graded here.

The target of test [1] is soluble human insulin receptor (IR-Fc) (human) (UniProt P06213). Nature of the test: phage ELISA, relative binding to sIR. A general note: ELISA stands for enzyme-linked immunosorbent assay.
In test [2] the target is sIGF-1R-Fc (UniProt P08069). The experiment in a line: phage ELISA, relative binding to sIGF-1R-Fc.
For test [3], the target named is soluble human insulin receptor (IR-Fc) (human) (UniProt P06213). Nature of the test: phage ELISA.
For test [4], the target named is soluble IGF-1 receptor (human) (UniProt P08069). The experiment in a line: time-resolved FRET, Eu-IGF-1R with b-20E2 and SA-APC.
Test [5] addresses soluble human insulin receptor (IR-Fc) (human) (UniProt P06213). The experiment in a line: heterogeneous time-resolved fluorescence assay.
Test [6] deals with soluble IGF-1 receptor (human) (UniProt P08069). The experiment in a line: heterogeneous time-resolved fluorescence assay.
For test [7], the target named is soluble human insulin receptor (IR-Fc) (human) (UniProt P06213). The experiment in a line: competition phage ELISA.
The target in test [8] is human insulin receptor (HIR) (human) (UniProt P06213). The experiment in a line: displacement of 125I-insulin from HIR.
The target in test [9] is soluble IGF-1 receptor (human) (UniProt P08069). Nature of the test: ELISA.

Consider SDGFYNAIELLSGGGS [IM448 (Δ-12-3 #40)], for which, in test [1], the binding entry was “binds”. With SFYEAIHQLLGVGGGS [IM447 (Δ-12-3 #45)], the binding entry in test [1] and in [2] was “binds” throughout. For SSNFYQALMLLSGGGS [IM466 (Δ-12-3* #146)], the binding result in test [1] and in test [2] was “binds” each time. For the molecule HPPLSELKLFLIGGGS [IM451 (Δ-12-3 #34)], the binding result in test [1] and in test [3] was “binds” throughout. Take HDPFYSMMKSLLGGGS [IM455 (Δ-12-3* #10)]: the binding entry in [1] and in [2] was “binds” each time.

Regarding DYKDFYDAIDQLVRGSARAGGTRDKK (ε-biotin on the C-terminal lysine) [biotinylated 20E2 peptide], in [4], the binding entry is “binds”.

DYKDCWARPCGDAANFYDWFVQQASKK [C1 peptide]: the binding result in test [5], in [6] and in test [7] was “binds” each time. As to HLCVLEELFWGASLFGYCSG (biotin on the side chain of the C-terminal lysine) [D124], in test [8], the binding entry is recorded as “binds”. Turning to WNTVDPFYHKLSELLREKK [B6 peptide], the binding result in test [7] is “binds”. APTFYAWFNQQTGGGS [IM445 (Δ-12-3 #6)]: the binding result in test [1] and in test [2] was “binds” in each case. Regarding HPPLEHLKAFLLGGGS [IM452 (Δ-12-3 #23)], the binding result in test [1] and in test [3] was “binds” each time. For HPTSKEIYAKLLGGGS [IM449 (Δ-12-3 #43)], the binding result in [1] and in [3] was “binds” each time. With DYKDVTFTSAVFHENFYDWFVRQVSKK [H2 peptide], in test [7], the binding entry is “binds”.

On to VTFTSAVFHENFYDWFVRQVS [H2 phage], for which, in test [3], the binding entry was “binds”. Consider HETFYSMIRSLAGGGS [IM446 (Δ-12-3 #24)], for which the binding result in test [1] and in test [2] was “binds” throughout.

In the case of SLNFYDALQLLAGGGS [IM453 (Δ-12-3 #112)], the binding result in [1] and in test [2] was “binds” each time.

Regarding WSDFYSYFQGLDGGGS [IM465 (Δ-12-3 #193)], the binding result in [1] is “binds”. Regarding LCQSWGVRIGWLAGLCP [JBA5 phage], the binding entry in [9] is on record as “binds”.

HPSLSDMRWILLGGGS [IM459 (Δ-12-3* #60)]: the binding entry in test [1] and in test [3] was “binds” throughout. Take NSFYEALRMLSSGGGS [IM460 (Δ-12-3* #76)]: the binding result in test [1] was “binds”. For HPSTNQMLMKLFGGGS [IM450 (Δ-12-3 #28)], the binding entry in test [3] was “binds”.
